Source: patent publication US20050186138

Assays:
Rorc [1] = biological target: T1, Rorc (UniProt P51450); experiment: competition with a labelled probe; conditions: 1 pmol unlabeled mutant did not compete with 1 fmol wild-type probe in EMSA; protein translated in vitro; protein details: TNT SP6 reticulocyte lysate, pCMV-Sport6 cDNA; variant of Bmal1 RORE wild-type
T1 sequence (looked up, limits assumed): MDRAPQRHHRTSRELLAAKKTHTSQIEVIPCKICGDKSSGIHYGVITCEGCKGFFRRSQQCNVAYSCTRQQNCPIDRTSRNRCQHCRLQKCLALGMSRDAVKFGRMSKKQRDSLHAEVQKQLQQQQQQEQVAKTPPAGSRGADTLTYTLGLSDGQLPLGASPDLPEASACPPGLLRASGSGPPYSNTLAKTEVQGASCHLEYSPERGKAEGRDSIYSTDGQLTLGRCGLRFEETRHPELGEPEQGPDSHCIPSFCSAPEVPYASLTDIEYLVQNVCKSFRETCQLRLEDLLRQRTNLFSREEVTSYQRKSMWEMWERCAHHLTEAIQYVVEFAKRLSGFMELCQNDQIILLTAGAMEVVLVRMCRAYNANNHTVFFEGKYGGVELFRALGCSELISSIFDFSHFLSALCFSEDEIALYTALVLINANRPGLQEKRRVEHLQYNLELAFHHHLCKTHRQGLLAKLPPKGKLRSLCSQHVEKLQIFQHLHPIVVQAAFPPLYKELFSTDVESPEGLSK

Rora4 [2] = system: T2, Rora4; experiment: competition with a labelled probe; conditions: 1 pmol unlabeled mutant did not compete with 1 fmol wild-type probe in EMSA; protein translated in vitro; protein details: TNT SP6 reticulocyte lysate, pCMV-Sport6 cDNA; variant of Bmal1 RORE wild-type
T2 sequence (looked up, limits assumed): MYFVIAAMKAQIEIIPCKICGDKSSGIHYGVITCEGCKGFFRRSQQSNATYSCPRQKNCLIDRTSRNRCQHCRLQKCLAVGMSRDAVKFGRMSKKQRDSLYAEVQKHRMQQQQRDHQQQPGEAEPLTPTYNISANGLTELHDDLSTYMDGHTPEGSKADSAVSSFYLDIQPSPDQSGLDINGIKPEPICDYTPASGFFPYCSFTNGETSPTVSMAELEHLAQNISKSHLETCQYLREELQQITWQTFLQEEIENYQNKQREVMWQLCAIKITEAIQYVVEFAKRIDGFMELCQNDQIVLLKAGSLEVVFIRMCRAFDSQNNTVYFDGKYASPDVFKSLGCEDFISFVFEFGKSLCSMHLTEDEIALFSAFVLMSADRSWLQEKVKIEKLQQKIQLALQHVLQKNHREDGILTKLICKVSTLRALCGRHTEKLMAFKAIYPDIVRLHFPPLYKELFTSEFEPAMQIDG

Rev-erb alpha [3] = biological target: T3, Rev-erb alpha (UniProt Q3UV55); experiment: competition with a labelled probe; conditions: 1 pmol unlabeled mutant did not compete with 1 fmol wild-type probe in EMSA; protein translated in vitro; protein details: TNT reticulocyte lysate; variant of Bmal1 RORE wild-type
T3 sequence (looked up, limits assumed): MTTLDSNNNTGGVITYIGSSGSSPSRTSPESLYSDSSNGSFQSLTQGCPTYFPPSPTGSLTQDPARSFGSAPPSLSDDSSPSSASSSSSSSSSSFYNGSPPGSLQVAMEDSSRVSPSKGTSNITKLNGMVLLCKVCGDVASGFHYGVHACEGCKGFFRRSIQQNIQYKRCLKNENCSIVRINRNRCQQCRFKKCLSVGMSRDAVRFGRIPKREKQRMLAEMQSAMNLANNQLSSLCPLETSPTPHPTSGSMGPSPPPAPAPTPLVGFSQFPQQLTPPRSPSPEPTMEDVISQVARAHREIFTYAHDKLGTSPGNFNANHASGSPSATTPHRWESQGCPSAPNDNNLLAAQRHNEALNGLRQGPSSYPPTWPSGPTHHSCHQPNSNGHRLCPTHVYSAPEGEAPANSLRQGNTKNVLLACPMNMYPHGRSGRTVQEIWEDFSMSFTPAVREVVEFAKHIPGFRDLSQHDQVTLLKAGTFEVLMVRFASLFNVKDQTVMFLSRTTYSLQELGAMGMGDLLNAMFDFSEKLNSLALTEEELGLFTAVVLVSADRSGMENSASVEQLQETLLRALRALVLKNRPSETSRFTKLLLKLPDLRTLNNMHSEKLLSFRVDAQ

Rora1 [4] = biological target: T4, Rora1 (UniProt P51448); experiment: competition with a labelled probe; conditions: 1 pmol unlabeled mutant did not compete with 1 fmol wild-type probe in EMSA; protein translated in vitro; protein details: TNT SP6 reticulocyte lysate, pCMV-Sport6 cDNA; variant of Bmal1 RORE wild-type
T4 sequence (looked up, limits assumed): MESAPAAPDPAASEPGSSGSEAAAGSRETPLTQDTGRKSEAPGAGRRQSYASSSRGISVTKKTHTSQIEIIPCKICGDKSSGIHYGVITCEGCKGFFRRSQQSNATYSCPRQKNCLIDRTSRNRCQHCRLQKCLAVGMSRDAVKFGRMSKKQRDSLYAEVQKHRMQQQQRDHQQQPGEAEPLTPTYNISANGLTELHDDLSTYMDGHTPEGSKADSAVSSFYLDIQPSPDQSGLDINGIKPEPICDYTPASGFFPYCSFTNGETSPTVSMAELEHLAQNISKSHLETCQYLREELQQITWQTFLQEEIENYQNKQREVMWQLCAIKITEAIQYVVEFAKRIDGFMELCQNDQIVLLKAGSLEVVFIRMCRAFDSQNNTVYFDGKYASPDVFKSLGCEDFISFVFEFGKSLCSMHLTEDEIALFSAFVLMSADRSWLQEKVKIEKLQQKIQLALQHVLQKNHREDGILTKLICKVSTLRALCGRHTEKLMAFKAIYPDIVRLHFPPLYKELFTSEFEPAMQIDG

Rev-erb beta [5] = biological target: T5, Rev-erb beta (UniProt Q60674); experiment: competition with a labelled probe; conditions: 1 pmol unlabeled mutant did not compete with 1 fmol wild-type probe in EMSA; protein translated in vitro; protein details: TNT SP6 reticulocyte lysate, pCMV-Sport6 cDNA; variant of Bmal1 RORE wild-type
T5 sequence (looked up, limits assumed): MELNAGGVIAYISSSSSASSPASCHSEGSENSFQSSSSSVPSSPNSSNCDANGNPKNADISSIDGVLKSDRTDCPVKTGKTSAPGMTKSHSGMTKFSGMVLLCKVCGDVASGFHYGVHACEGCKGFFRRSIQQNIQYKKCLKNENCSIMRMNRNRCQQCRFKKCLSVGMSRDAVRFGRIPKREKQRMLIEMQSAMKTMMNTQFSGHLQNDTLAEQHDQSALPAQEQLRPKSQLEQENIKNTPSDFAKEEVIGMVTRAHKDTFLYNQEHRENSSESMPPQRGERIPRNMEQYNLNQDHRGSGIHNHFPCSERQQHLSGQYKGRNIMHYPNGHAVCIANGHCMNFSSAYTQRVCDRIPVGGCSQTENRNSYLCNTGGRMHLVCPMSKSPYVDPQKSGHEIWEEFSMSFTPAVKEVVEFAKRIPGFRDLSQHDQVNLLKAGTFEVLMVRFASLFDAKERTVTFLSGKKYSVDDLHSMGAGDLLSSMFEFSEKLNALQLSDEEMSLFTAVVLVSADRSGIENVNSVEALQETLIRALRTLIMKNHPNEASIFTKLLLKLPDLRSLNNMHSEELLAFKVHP

Rorc [6] = biological target: T1, Rorc; experiment: EMSA; conditions: protein translated in vitro; protein details: TNT SP6 reticulocyte lysate, pCMV-Sport6 cDNA; label: 32P
Rora4 [7] = system: T2, Rora4; experiment: EMSA; conditions: protein translated in vitro; protein details: TNT SP6 reticulocyte lysate, pCMV-Sport6 cDNA; label: 32P
Rev-erb alpha [8] = biological target: T3, Rev-erb alpha; experiment: EMSA; conditions: protein translated in vitro; protein details: TNT reticulocyte lysate; label: 32P
Rora1 [9] = biological target: T4, Rora1; experiment: EMSA; conditions: protein translated in vitro; protein details: TNT SP6 reticulocyte lysate, pCMV-Sport6 cDNA; label: 32P
Rev-erb beta [10] = biological target: T5, Rev-erb beta; experiment: EMSA; conditions: protein translated in vitro; protein details: TNT SP6 reticulocyte lysate, pCMV-Sport6 cDNA; label: 32P

Measured: binding result

GAAGGCAGAAAGTACGTCAGGGACGGAG (double strand) [Bmal1 RORE mutant]
no binding: Rorc [1] | Rora4 [2] | Rev-erb alpha [3] | Rora1 [4] | Rev-erb beta [5]

GAAGGCAGAAAGTAGGTCAGGGACGGAG (double strand) [Bmal1 RORE wild-type]
binds: Rorc [6] | Rora4 [7] | Rev-erb alpha [8] | Rora1 [9] | Rev-erb beta [10]

For at least one entry, the source does not settle the construct or the ends of the probe. For some of these results: Negatives hold for the conditions tested. Protein sequences can lack the tags named with them.
